# Among all 400,000 compounds or so, about 5,500 (1.4%) were called active. The inconclusive results got no clear call from the source; some entries with a clear call stand among them for comparison. The call rests on the fitted dose curve; in most records, active means well fitted cell-killing curve with a large enough effect; inconclusive means small, poorly fitted or top-dose-only effect, or effect the other way; inactive means flat fitted curve, though single readings scatter. A potency beside an inconclusive call is a rough fit, not a confirmed value.
# Test: qHTS assay for MDR1-selective chemotherapeutics: Primary screen using the parental adenocarcinoma cell KB-3-1; further: nearly all actives have a fitted effect of over 60% in size
# Conditions: KB-3-1 viability, CellTiter-Glo ATP luminescence, 72 h; activity change, negative = cytotoxic: at 46.1 µM (top of the series)
# How it was run: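 Using CellTiter-Glo luminescence, growth of non-resistant KB-3-1 adenocarcinoma cells is assessed 72 h after pin-tool compound addition at 37 °C. Normalized responses across the concentration series yield fitted curves.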
# On the % scale 0 is the no-effect control and ±100 the full control effect; potency means the concentration at half of the fitted maximal effect.
SMILES,Potency,"activity change, negative = cytotoxic"
COc1ccc(OC)c(NC(=O)CN(Cc2ccc(F)cc2)C2CCCCC2)c1,active: 16.4 µM,
COc1ccccc1-c1ccc(SCC(=O)NCCc2ccccc2)nn1,"inconclusive: 1.84 µM [rising, partial curve, poor fit]",
Cn1c(=O)c2[nH]c(N3CCOCC3)nc2n(-c2ccccc2)c1=O,"inconclusive: 23.1 µM [rising, single point]",
CCN(c1ccccc1)S(=O)(=O)c1ccc(C(=O)Nc2nnc(C3CC3)o2)cc1,"inconclusive: 20.6 µM [cytotoxic, single point]",
COc1ccc(OCC(=O)OCC(=O)NC2CCCC2)cc1,,inconclusive: 3.61%
Fc1ccc(-c2nc(Nc3cccc(C(F)(F)F)c3)nc3c2COc2ccccc2-3)cc1,inactive,
Cc1ncc(CO)c(/C=N/NC(=O)c2cc3c(s2)CCCC3)c1O,"inconclusive: 18.4 µM [cytotoxic, single point]",
CCOc1ccc(NC(=O)NC(C)CC)cc1 (stereo not given),"inconclusive: 32.6 µM [cytotoxic, partial curve, poor fit]",
Cc1csc(NC(=O)c2sc3nc(-c4cccs4)ccc3c2N)n1,inactive,
O=C(COc1ccc(-n2cnnn2)cc1)Nc1cc(Cl)cc(Cl)c1,"inconclusive: 0.0073 µM [cytotoxic, full curve]",
COc1cccc2c1C(=O)C=C(C)C2=O,"inconclusive: 29.1 µM [cytotoxic, single point]",
Cc1ccccc1OCCCN1C(=O)C(=O)c2cccc(C)c21,"inconclusive: 29.1 µM [cytotoxic, single point]",
COc1ccc(C2=NN(C(N)=S)C(c3ccccc3)C2)cc1 (stereo not given),inactive,
Cc1ccc(S(=O)(=O)N2CCOCC2)cc1C(=O)NCCN1C(=O)S/C(=C\c2ccccc2Cl)C1=O,"inconclusive: 29.1 µM [cytotoxic, single point]",
COc1ccc(NC(=O)CCCn2nc(C)c3sc4ccccc4c3c2=O)cc1,inactive,
Clc1ccccc1Nc1nnc(-c2ccncc2)s1,"inconclusive: 16.4 µM [cytotoxic, partial curve, poor fit]",
Fc1ccc(C2=CC(c3ccc(F)cc3)n3c(nc4ccccc43)N2)cc1 (stereo not given),"inconclusive: 29.1 µM [cytotoxic, single point]",
CC(CNC(=O)c1ccc2nc(Cc3ccccc3)oc2c1)c1ccccc1 (stereo not given),"inconclusive: 18.4 µM [cytotoxic, partial curve, poor fit]",
CCOC(=O)C1=C(C)Nc2nc(SCC)nn2C1c1ccc(OC)cc1 (stereo not given),inactive,
COc1ccc(CN2CCN(c3ccc(F)cc3)CC2)c(OC)c1OC,"inconclusive: 11.6 µM [cytotoxic, partial curve, poor fit]",

# Reprinted from the entries so far (two entries):
SMILES,Potency,"activity change, negative = cytotoxic"
Cc1csc(NC(=O)c2sc3nc(-c4cccs4)ccc3c2N)n1,inactive,
O=C(COc1ccc(-n2cnnn2)cc1)Nc1cc(Cl)cc(Cl)c1,"inconclusive: 0.0073 µM [cytotoxic, full curve]",

# Reference: PubChem BioAssay AID1347075 (National Center for Advancing Translational Sciences (NCATS), 2019)
